Values from PubChem BioAssay AID504784 (Drosophila RNAi Screening Center, 2011)
Assay: 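Fly genes whose silencing alters how much lipid cells keep in droplets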 (primary screen). Cell system: Drosophila Kc167 embryonic cells. Reagents: long dsRNA against Drosophila genes, about 250 ng dsRNA per well. Time to read-out: 4 days. Conditions: cells fed 400 µM oleic acid bound to BSA. Measurement: 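Microscope images give a droplet-to-nucleus area ratio, taken as log and converted to a screen-wide B-score; higher values mean greater lipid storage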. Scale: droplet/nuclear area B-score: higher = more stored lipid (overstorage).
The deposit covers about 17,000 reagents; below is an unselected part of those that have a named target and a result. 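Each column is one replicate's B-score; the combined score over replicates was not deposited, so single values may mislead.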 A plus sign joins genes that one reagent is predicted to hit. Not all columns of the deposit are shown. No sequences are given here.

{"Gene": "inc (insomniac)", "DRSC id": "DRSC17954", "droplet/nuclear area B-score, replicate 1": 0.847}
{"Gene": "inc (insomniac)", "DRSC id": "DRSC18512", "droplet/nuclear area B-score, replicate 1": 0.669}
{"Gene": "rho-5 (rhomboid-5)", "DRSC id": "DRSC02847", "droplet/nuclear area B-score, replicate 1": -6.09}
{"Gene": "CG15528", "DRSC id": "DRSC15065", "droplet/nuclear area B-score, replicate 1": 0.913}
{"Gene": "Vinc (Vinculin)", "DRSC id": "DRSC18728", "droplet/nuclear area B-score, replicate 1": -0.138}
{"Gene": "eIF2Bepsilon (eukaryotic translation initiation factor 2B subunit epsilon)", "DRSC id": "DRSC18769", "droplet/nuclear area B-score, replicate 1": 1.72}
{"Gene": "Nepl18 (Neprilysin-like 18)", "DRSC id": "DRSC14879", "droplet/nuclear area B-score, replicate 1": 1.84}
{"Gene": "Tcs4 (Threonyl-carbamoyl synthesis 4)", "DRSC id": "DRSC19587", "droplet/nuclear area B-score, replicate 1": 0.328}
{"Gene": "bbx + waw", "DRSC id": "DRSC20575", "droplet/nuclear area B-score, replicate 1": -1.33}
{"Gene": "bbx + waw", "DRSC id": "DRSC20589", "droplet/nuclear area B-score, replicate 1": 2.71}
{"Gene": "TBC1D5 (TBC1 domain family member 5)", "DRSC id": "DRSC16421", "droplet/nuclear area B-score, replicate 1": -0.855}
{"Gene": "sog (short gastrulation)", "DRSC id": "DRSC20379", "droplet/nuclear area B-score, replicate 1": 0.259}
{"Gene": "Snx3 (Sorting nexin 3)", "DRSC id": "DRSC16027", "droplet/nuclear area B-score, replicate 1": -1.84}
{"Gene": "Rai1 (Rat1 Interacting Protein 1)", "DRSC id": "DRSC20157", "droplet/nuclear area B-score, replicate 1": -0.225}
{"Gene": "CG42808 + CG42807", "DRSC id": "DRSC06370", "droplet/nuclear area B-score, replicate 1": 0.295}
{"Gene": "CG42808 + CG42807", "DRSC id": "DRSC06966", "droplet/nuclear area B-score, replicate 1": 0.433}
{"Gene": "CG42266", "DRSC id": "DRSC21577", "droplet/nuclear area B-score, replicate 1": -1.64}
{"Gene": "CG42266", "DRSC id": "DRSC21957", "droplet/nuclear area B-score, replicate 1": 2.75}
{"Gene": "VhaSFD (Vacuolar H[+]-ATPase SFD subunit)", "DRSC id": "DRSC03471", "droplet/nuclear area B-score, replicate 1": -0.0527}
{"Gene": "CG32633", "DRSC id": "DRSC18987", "droplet/nuclear area B-score, replicate 1": 2.39}
{"Gene": "Yp1 (Yolk protein 1)", "DRSC id": "DRSC18731", "droplet/nuclear area B-score, replicate 1": 0.877}
{"Gene": "CG13384", "DRSC id": "DRSC02258", "droplet/nuclear area B-score, replicate 1": 0.13}
{"Gene": "Nepl14 (Neprilysin-like 14)", "DRSC id": "DRSC15631", "droplet/nuclear area B-score, replicate 1": -1.41}
{"Gene": "CG13367", "DRSC id": "DRSC18485", "droplet/nuclear area B-score, replicate 1": -0.972}
{"Gene": "CG13367", "DRSC id": "DRSC18486", "droplet/nuclear area B-score, replicate 1": -1.09}
{"Gene": "Spn55B (Serpin 55B)", "DRSC id": "DRSC07694", "droplet/nuclear area B-score, replicate 1": -0.00723}
{"Gene": "Spn55B (Serpin 55B)", "DRSC id": "DRSC21862", "droplet/nuclear area B-score, replicate 1": -1.27}
{"Gene": "CG32117", "DRSC id": "DRSC21652", "droplet/nuclear area B-score, replicate 1": -0.732}
{"Gene": "CSN1b (COP9 signalosome subunit 1b)", "DRSC id": "DRSC11108", "droplet/nuclear area B-score, replicate 1": -2.74}
{"Gene": "CG10822", "DRSC id": "DRSC06005", "droplet/nuclear area B-score, replicate 1": 0.0101}
{"Gene": "jagn (jagunal)", "DRSC id": "DRSC12152", "droplet/nuclear area B-score, replicate 1": 2.93}
{"Gene": "CG3088", "DRSC id": "DRSC10352", "droplet/nuclear area B-score, replicate 1": 0.359}
{"Gene": "Eip74EF (Ecdysone-induced protein 74EF)", "DRSC id": "DRSC10613", "droplet/nuclear area B-score, replicate 1": -2.45}
{"Gene": "Eip74EF (Ecdysone-induced protein 74EF)", "DRSC id": "DRSC11160", "droplet/nuclear area B-score, replicate 1": 3.41}
{"Gene": "Drice (Death related ICE-like caspase)", "DRSC id": "DRSC16715", "droplet/nuclear area B-score, replicate 1": -1.35}
{"Gene": "Bet5 (Blocked early in transport 5)", "DRSC id": "DRSC14600", "droplet/nuclear area B-score, replicate 1": -0.727}
{"Gene": "CG10713", "DRSC id": "DRSC09786", "droplet/nuclear area B-score, replicate 1": 3.99}
{"Gene": "mRRF2 (mitochondrial ribosome recycling factor 2)", "DRSC id": "DRSC16143", "droplet/nuclear area B-score, replicate 1": -1.39}
{"Gene": "Arc42 (Activator-recruited cofactor subunit 42)", "DRSC id": "DRSC14340", "droplet/nuclear area B-score, replicate 1": -2.2}
{"Gene": "Arc42 (Activator-recruited cofactor subunit 42)", "DRSC id": "DRSC15627", "droplet/nuclear area B-score, replicate 1": 0.877}

Single entries from the list.
Vinc (Vinculin) [DRSC18728], droplet/nuclear area B-score, replicate 1 = -0.138
Entry for inc (insomniac) [DRSC17954] under “droplet/nuclear area B-score, replicate 1”: 0.847
Rai1 (Rat1 Interacting Protein 1) [DRSC20157], droplet/nuclear area B-score, replicate 1 → -0.225
Value for CG42808 + CG42807 [DRSC06370] in “droplet/nuclear area B-score, replicate 1”: 0.295
For “droplet/nuclear area B-score, replicate 1”, CG13367 [DRSC18486] has -1.09
Spn55B (Serpin 55B) [DRSC07694], droplet/nuclear area B-score, replicate 1 = -0.00723
